Measured values from patent US6121252A, “Phosphinic acid derivatives” (priority 1998, dated 2000).
For at least one compound, name, drawing or mass did not settle the structure. Peptide text beside a SMILES is read from it.

What was measured:
[1] = test system: cortical cell cultures; assay: In vitro toxicity of NAAG in cortical cell cultures; assay type: cell-based, rat; conditions: 3 μM to 3 mM
Experimental: Experiments are performed after 21 days in cultures.
At the end of exposure, the cells are washed once with HEPES buffered saline solution and then replaced with serum free modified Earle's basal medium. The cultures are then returned to the CO2 incubator for 24 hour recovery.
This control measurement is subtracted from each experimental point.

[2] = test system: LNCaP tumors; assay: In vivo LNCaP tumor model, subcutaneous Compounds 16, 17, 18; design: species or system ncr nude male mice; conditions: 1 and 3 mg/kg s.c.
Experimental: Ncr nude male mice, age 5 to 6 weeks, were injected in the right flank with 5×10^6 LNCaP cells in Matrigel™ (0.1 ml total injection volume). Two weeks following cell injection, daily s.c. injections of Compound 16, Compound 17, and Compound 18 were initiated at the following doses: 1 and 3 mg/kg. Controls received 50 mM HEPES s.c. daily. Once tumors were palpable they were measured twice a week.
Response to treatment was monitored in two ways. First, mean tumor volume for each group was presented as tumor:control ratio (% T/C) and these values were compared at one point in time. Second, tumor volume versus time was monitored.

Structure (SMILES)	toxicity of NAAG (in words) [1]	tumor response (in words) [2]
CC(=O)N[C@@H](CC(=O)O)C(=O)N[C@@H](CCC(=O)O)C(=O)O [NAAG, N-acetyl-aspartyl-glutamate] (Ac-Asp-Glu-OH)	toxicity increased as the concentration of NAAG increased	
O=C(O)CCC(CP(=O)(O)Cc1c(F)c(F)c(F)c(F)c1F)C(=O)O (centres unmarked) [Compound 16, 2-[[(pentafluorobenzyl)hydroxyphosphinyl]methyl]pentanedioic acid]		responded better
